{"source": "paper PMC10163288", "binders": {"B1": {"name": "il10ra_site1_sap_13_mot_d910f416147260c93593610934442136_0001_000000186_0001_34_49_H_._HHH_b1_02998_0002_0000200010_0000002_0_0001 (protein)", "chain": "SSSSDEVVRRAFELLEEAVKLDAEGNPEEAERILEEAEEVAEEGNNRLLQWQIRWLLELLSSSSS"}, "B2": {"name": "il10ra_site1_sap_20_mot_HHH_b1_08622_000000192_0001_23_40_H_._HHH_b2_06485_0001_0000100001_0000003_0_0001_af2pred_0001 (protein)", "chain": "SSSSSEFEEAIKAARESIEHALRLGDDEKVEQALRLLERLARDANDEEAEKFIEEVEELLSSSSS"}, "B3": {"name": "il10ra_site1_normal_mot_HHH_b2_00479_000000091_0001_1_12_H_._f9c37336de6f1513c893807100b70f62_0001_af2_0001_0000200004_0000001_0_af2pred_dldesign_0_af2pred (protein)", "chain": "SLEERLREALLKRLPEEEVERALALFRELKAETGDPLAALVALARRLAEEGKPELARVVAEVINE"}, "B4": {"name": "il10ra_site1_sap_17_mot_HHH_b2_07688_000000045_0001_1_20_H_._HHH_b2_03943_0001_0000300045_0000001_0_0001 (protein)", "chain": "SSSSDREQRVAELLFEALRAWVEGNPEEAKELLEEARELAEELNDEELEEYIRILEHFVKHSSSS"}, "B5": {"name": "il10ra_site1_sap_18_mot_HHH_b2_05454_000000273_0001_1_18_H_._HHH_b2_05244_0001_0000200012_0000001_1_0001 (protein)", "chain": "SSSSDLRREVYKLLREIVELDHEGDPEEAKKLVEEAQELIEEANDWLLRFVLEHLERIIDSSSSS"}, "B6": {"name": "il10ra_site1_normal_mot_HHH_b2_02354_af2_000000157_0001_40_56_H_._HHH_b1_03315_af2_0001_0000200024_0000002_0 (protein)", "chain": "SSSSEQEVSRLIEEIMRLIKEGDEEEARELLEKAKEIAEELGDENLKFILKSLELALEQLFSSSS"}, "B7": {"name": "il10ra_site1_sap_14_mot_HHH_b1_08411_af2_000000053_0001_1_20_H_._HHH_b1_08108_0001_0000200028_0000001_0_0001 (protein)", "chain": "SSSSSSDEYREAYELIEEAFHIEDEEEARELLEEAKELAERAGNWALRFAIQLLLEDLSSSSSSS"}, "B8": {"name": "il10ra_site1_sap_27_mot_HHH_b1_02492_000000051_0001_1_21_H_._HHH_b1_05859_0001_0000300036_0000001_0_0001 (protein)", "chain": "SSSSDLEELYELSRRAAELDSEGNPEEAQEVLEEAERIAEEAGDRLFLLQLRFLLKMIRGSSSSS"}, "B9": {"name": "il10ra_site1_sap_17_mot_e1dd4851c59bc1cdde016f988f6856bd_0001_1_000000200_0001_16_31_H_._HHH_b1_07157_0001_0000100004_0000001_1_0001 (protein)", "chain": "DEEKEEELIELIAEALGVPPEVVELALERQREQAGDPRQALEAIAASAWLSAPPELQKKLEEALK"}, "B10": {"name": "il10ra_site1_normal_mot_HHH_b2_06857_af2_000000179_0001_42_54_H_._HHH_b2_04986_af2_0001_0000100001_0000001_0 (protein)", "chain": "SSSSTEAMRELYELLRRLAEAAHNGDEERVEEIAEEAERIAKELGNELTLFQIRFALRTVLSSSS"}, "B11": {"name": "il10ra_site1_sap_20_mot_HHH_b2_05797_000000294_0001_1_19_H_._HHH_b1_03030_0001_0000300027_0000001_0_0001 (protein)", "chain": "SSSSDEVSRRVMELLEEALELDQNGDREEAEELAREAEELAQEANNPQLLRAVEYLLRSINSSSS"}, "B12": {"name": "il10ra_site1_normal_mot_HHH_b2_00345_af2_000000013_0001_42_56_H_._HHH_b2_01857_0001_0000100002_0000002_0 (protein)", "chain": "SSSSSDEEEEEVEELLEEAKHIEDHEKRLEILLEATHLALRAQDPELVQLVWEVFRRLIESSSSS"}, "B13": {"name": "il10ra_site1_normal_mot_HHH_b2_08186_000000021_0001_43_56_H_._HHH_b2_07428_af2_0001_0000500009_0000001_0 (protein)", "chain": "SSSSSDEEEVEELLEEAEELVKRGNPEEALELLLKALQIAFRISNAELLQKIWEVLQKLRSSSSS"}, "B14": {"name": "il10ra_site1_normal_mot_HHH_b2_00984_000000042_0001_1_20_H_._HHH_b1_07305_0001_0000100009_0000001_0 (protein)", "chain": "SSSSSDEEELERLLEELEELVERNDRERFLRLVQELIRLAIRLSDPEILQRLWELIRRFASSSSS"}, "B15": {"name": "il10ra_site1_sap_17_mot_HHH_b2_00076_000000055_0001_40_55_H_._HHH_b2_01555_0001_0000200016_0000002_0_0001 (protein)", "chain": "SSSADEVSHLLIQAYALANQIGDPELRKIVEKLAQIAAEARANNDEEKLEEVAEELEEFLKEVSS"}, "B16": {"name": "il10ra_site1_sap_12_mot_HHH_b2_05343_000000235_0001_19_35_H_._HHH_b1_05240_0001_0000400031_0000001_1_0001 (protein)", "chain": "SSSSSSTEELFELIEELAKLVRENDEERAEEILERIEELAKELNNRLFEIQARFLFRRLESSSSS"}, "B17": {"name": "il10ra_site1_sap_15_mot_HHH_b2_03328_af2_000000127_0001_1_19_H_._HHH_b2_03806_af2_0001_0000400012_0000001_0_0001_af2pred_dldesign_0_af2pred (protein)", "chain": "SSSSDPLAEIERLVAEARRLLAAGQPDEAAQLLTEAAKLAIELGRPDLAYEISRLLWESLSSSSS"}, "B18": {"name": "il10ra_site1_sap_23_mot_HHH_b2_00984_000000042_0001_1_20_H_._HHH_b2_02068_af2_0001_0000500019_0000001_0_0001 (protein)", "chain": "SSSSSDDEEQLKAAAVFLEAALRYGDEEAIEMMTWSLEALAERTNDEEARELVEQAKELLSSSSS"}, "B19": {"name": "il10ra_site1_normal_mot_HHH_b2_00730_000000084_0001_1_16_H_._HHH_b2_06521_0001_0000500035_0000001_0 (protein)", "chain": "SSSSSDEEEYLRLSLRFAEQLIENGDPEAARRILRAAFELAERLGDEELLEEVEELLRQLSSSSS"}}, "note": "This is one part of the list.", "data": [{"target": "il10ra, Q13651", "test": "yeast display titration", "values": [{"binder": "B1", "apparent Kd": "inactive: no binding seen"}, {"binder": "B2", "apparent Kd": "inactive: no binding seen"}, {"binder": "B3", "apparent Kd": "inactive: no binding seen"}, {"binder": "B4", "apparent Kd": "inactive: no binding seen"}, {"binder": "B5", "apparent Kd": "inactive: no binding seen"}, {"binder": "B6", "apparent Kd": "inactive: no binding seen"}, {"binder": "B7", "apparent Kd": "inactive: no binding seen"}, {"binder": "B8", "apparent Kd": "inactive: no binding seen"}, {"binder": "B9", "apparent Kd": "inactive: no binding seen"}, {"binder": "B10", "apparent Kd": "inactive: no binding seen"}, {"binder": "B11", "apparent Kd": "inactive: no binding seen"}, {"binder": "B12", "apparent Kd": "inactive: no binding seen"}, {"binder": "B13", "apparent Kd": "inactive: no binding seen"}, {"binder": "B14", "apparent Kd": "inactive: no binding seen"}, {"binder": "B15", "apparent Kd": "inactive: > 166 nM"}, {"binder": "B16", "apparent Kd": "inactive: no binding seen"}, {"binder": "B17", "apparent Kd": "inactive: no binding seen"}, {"binder": "B18", "apparent Kd": "inactive: no binding seen"}, {"binder": "B19", "apparent Kd": "inactive: no binding seen"}]}]}
